PubChem BioAssay AID1347075 (National Center for Advancing Translational Sciences (NCATS), 2019)
In all, about 400,000 compounds went through this assay and about 5,500 (1.4%) were called active. Inconclusive means that the source gave no clear call. Such entries were picked first, then a sample of the others. The call rests on the fitted dose curve; in most records, active means well fitted cell-killing curve with a large enough effect; inconclusive means small, poorly fitted or top-dose-only effect, or effect the other way; inactive means flat fitted curve, though single readings scatter. Potencies beside an inconclusive call are fits to weak or partial responses and may not hold up.

Assay: qHTS assay for MDR1-selective chemotherapeutics: Primary screen using the parental adenocarcinoma cell KB-3-1; further: nearly all actives have a fitted effect of over 60% in size
Conditions: KB-3-1 viability, CellTiter-Glo ATP luminescence, 72 h; activity change, negative = cytotoxic: at 46.1 µM (top of the series)
Summary of the method: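 Cells are dispensed, compounds pinned in, plates held at 37 °C for 72 h, then CellTiter-Glo is added and luminescence read after 10 minutes. Cell line: parental KB-3-1 in phenol-red-free DMEM, 10% FBS.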
On the % scale 0 is the no-effect control and ±100 the full control effect; potency means the concentration at half of the fitted maximal effect.

Row | Structure (SMILES) | Potency | activity change, negative = cytotoxic
1 | CCN1CCN(S(=O)(=O)c2ccc(Cl)c(C(=O)NCc3nc4ccccc4[nH]3)c2)CC1 | inconclusive: 29.1 µM [cytotoxic, single point] | 
2 | COc1ccccc1C(=O)NNC1=C(C(=O)C(F)(F)F)CCC1 | inactive | 
3 | Nc1ccc(S(=O)(=O)c2cc(O)c3ccccc3c2O)cc1 | inconclusive: 29.1 µM [cytotoxic, single point] | 
4 | Cc1ccccc1NC(=S)Nc1ccc(Br)cc1 | inactive | 
5 | CCCOC(=O)c1cccc(Nc2nc(CCC)cc(=O)[nH]2)c1 | inconclusive: 16.4 µM [cytotoxic, single point] | 
6 | Nc1ccc(C(Cc2ccnc3ccccc23)Cc2ccnc3ccccc23)cc1 | inconclusive: 16.4 µM [rising, partial curve, poor fit] | 
7 | Cc1ccc(S(=O)(=O)N2CCN(CC(=O)Nc3ccnn3C3CCCC3)CC2)cc1 | inconclusive: 29.1 µM [cytotoxic, single point] | 
8 | OCCN(Cc1ccccc1)C(=S)Nc1ccc(Cl)cc1Cl | inconclusive: 18.4 µM [cytotoxic, single point] | 
9 | O=C(C1=C[C@H](c2csc3ccccc23)C[C@H](OCc2ccc(CO)cc2)O1)N1CCN(Cc2ccccc2)CC1 | inconclusive: 29.1 µM [cytotoxic, single point] | 
10 | Cc1cccc(C(=O)NCC(=O)N(C)CC(=O)Nc2ccc(N3CCOCC3)cc2)c1 | inactive | 
11 | C/C=C1\C(OC2OC(CO)C(O)C(O)C2O)OC=C(C(=O)OC)C1CC(=O)OCC1C(C)C(OC(=O)CC2C(C(=O)OC)=COC(OC3OC(CO)C(O)C(O)C3O)/C2=C\C)CC1C(CO)CO (stereo not given) | inactive | 
12 | O=[N+]([O-])c1ccc(O)c(C2=NNC(c3ccccc3F)C2)c1 (stereo not given) | inconclusive: 25.9 µM [cytotoxic, single point] | 
13 | Cc1ccc(NC(=S)N(CCCN2CCCC2)Cc2cccn2Cc2ccc(Cl)cc2)cc1C | inconclusive: 20.6 µM [cytotoxic, single point] | 
14 | CCN(CC)c1ccc(C(=O)OCC(=O)N(C)Cc2ccccc2)cc1 | inactive | 
15 | COc1ccc(/C=C/C(=O)CC(O)(c2ccccc2)C(F)(F)F)cc1 (stereo not given) | inconclusive: 29.1 µM [cytotoxic, single point] | 
16 | CCc1noc(C)c1C(=O)Oc1ccc(N(C)S(=O)(=O)c2ccc(C)cc2)cc1 | inconclusive: 8.2 µM [cytotoxic, partial curve] | 
17 | Cc1ccc(NC(=O)Cn2nc(C(=O)O)c3ccccc3c2=O)cc1S(=O)(=O)N1CCCCCC1 | inactive | 
18 | CCc1ccc(CN(Cc2cccnc2)C(=O)/C=C/c2ccc(OC)cc2)cc1 | inactive | 
19 | CNC(=O)Nc1cc(C(F)(F)F)cc(C(F)(F)F)c1 | inactive | 
20 | CSCCC(NC(=O)C12CC3CC(CC(C3)C1)C2)C(=O)OCC(=O)c1ccc(C)cc1 (stereo not given) |  | inconclusive: -42.3% [cytotoxic]
21 | COc1cc(C2CC(=O)N(Cc3cccc(F)c3)c3ccccc3S2)cc(OC)c1OC (stereo not given) | inconclusive: 0.0018 µM [cytotoxic, full curve, poor fit] | 
22 | CCSc1nc2c(c(=O)[nH]c(=O)n2C)n1Cc1ccc(Cl)cc1 | inconclusive: 32.6 µM [cytotoxic, single point] | 
23 | O=C(NCc1ccco1)c1ccc(-c2ccc(Cl)cc2)o1 | inconclusive: 32.6 µM [cytotoxic, single point] | 

Row | Structure (SMILES) | Potency | activity change, negative = cytotoxic
24 | CCOc1ccccc1NC(=O)COC(=O)c1cc(C)oc1C |  | inconclusive: 7.17%
25 | CC(C)c1csc(CN2CCCC(CCC(=O)NCc3ccccc3F)C2)n1 (stereo not given) | inconclusive: 23.1 µM [cytotoxic, single point] | 
26 | Cc1ccccc1CNC(=O)C(=O)NCCC1CCCCN1S(=O)(=O)c1ccccc1 (stereo not given) | inconclusive: 18.4 µM [cytotoxic, single point] | 
27 | CCOC(=O)C1=C(C)NC2=C(C(=O)c3ccccc32)C1c1ccc(O)cc1 (stereo not given) | inactive | 
28 | Cc1cccc(N/C(N)=N/c2nc(C)cc(C)n2)c1 | inconclusive: 29.1 µM [cytotoxic, single point] | 
29 | CCN(CC)S(=O)(=O)c1ccc(Cl)c(NC(=O)COC(=O)c2c(C)noc2C)c1 | inactive | 
30 | CC(NC(=O)c1cc(S(=O)(=O)N(C)C)ccc1Cl)C1CC2CCC1C2 (stereo not given) | inconclusive: 32.6 µM [cytotoxic, single point] | 
31 | CC1Sc2ccc(S(=O)(=O)CCC(=O)NC3CCCCCC3)cc2NC1=O (stereo not given) | inconclusive: 9.2 µM [cytotoxic, partial curve, poor fit] | 
32 | c1ccc(CNc2ncnc3sc4c(c23)CCCC4)nc1 | inactive | 
33 | NC(CS)C(=O)O (stereo not given) | inconclusive: 16.4 µM [rising, partial curve, poor fit] | 
34 | Brc1ccc(NC2=Nc3ccccc3CC2)cc1 | inactive | 
35 | O=C1[C@H]2[C@@H](c3ccc(C(F)(F)F)cc3)N[C@]3(CCCN(CC4CCCCC4)C3=O)[C@H]2C(=O)N1Cc1ccccc1 | inconclusive: 29.1 µM [cytotoxic, single point] | 
36 | CC1(c2ccc(Cl)cc2)NC(=O)N(CC(=O)Nc2cccnc2Cl)C1=O (stereo not given) | inactive | 
37 | O/N=C(\c1ccc(Cl)cc1Cl)c1ncc(C(F)(F)F)cc1Cl | inconclusive: 18.4 µM [cytotoxic, partial curve, poor fit] | 
38 | COC(=O)C1=CN(Cc2ccccc2)C=C(C(=O)OC)C1c1ccc(OC)c(OC)c1 | inactive | 
39 | Cc1cc[n+](CCC2CCCCC2)c2ccccc12 | active: 2.06 µM | 
40 | CCc1ccc2oc(-c3ccc(C)c(NC(=O)/C=C/c4ccco4)c3)nc2c1 | inactive | 
41 | Cc1cc(=O)oc2cc(NC(=O)CCOc3ccccc3)ccc12 | inconclusive: 8.2 µM [rising, partial curve] | 
42 | CSc1ccc(CN2CCN(C(=O)CC(C)C)CC2)cc1 | inconclusive: 29.1 µM [cytotoxic, single point] | 
43 | Clc1ccccc1OCCSc1nnc(-c2cccs2)o1 | inactive | 
44 | COc1ccc(-c2cc(=O)oc3cc(OC(=O)C4CCCCC4)ccc23)cc1 | inactive | 
45 | Cc1ccc(S(=O)(=O)NC(C)(C)CSc2ncccn2)cc1 | inconclusive: 16.4 µM [cytotoxic, partial curve, poor fit] | 

Random excerpt: two compounds from above.
Row | Structure (SMILES) | Potency | activity change, negative = cytotoxic
36 | CC1(c2ccc(Cl)cc2)NC(=O)N(CC(=O)Nc2cccnc2Cl)C1=O (stereo not given) | inactive | 
24 | CCOc1ccccc1NC(=O)COC(=O)c1cc(C)oc1C |  | inconclusive: 7.17%

Some of the entries so far, comma-delimited.
Row,Structure (SMILES),Potency,"activity change, negative = cytotoxic"
34,Brc1ccc(NC2=Nc3ccccc3CC2)cc1,inactive,
35,O=C1[C@H]2[C@@H](c3ccc(C(F)(F)F)cc3)N[C@]3(CCCN(CC4CCCCC4)C3=O)[C@H]2C(=O)N1Cc1ccccc1,"inconclusive: 29.1 µM [cytotoxic, single point]",
